Source: the supplement of paper PMC8104966
± gives the standard deviation of the averaged measurements. The list shows a part of the results. Single values are uncertain here, since repeats match poorly.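 U2OS cells carrying ACE2 were mixed with U2OS cells carrying full-length spike, and fusion was scored by imaging as the share of nuclei showing both cell types' fluorescent markers. A compound counts as an inhibitory hit when it is non-toxic and its fusion z-score falls below -3, meaning more than three standard deviations below the plate's DMSO wells.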

The molecules below were run on U2OS ACE2 x SARS-CoV-2 spike co-culture (assay: cell-cell fusion (fraction fused) z-score vs plate DMSO control; higher = more fusion). Conditions: 30 µM; 5 h; toxicity class: non-toxic, passed QC.

Row | SMILES | cell-cell fusion (z-score)
1 | CCc1nc(N)nc(N)c1-c1ccc(Cl)cc1 | inactive: 1.76
2 | O=C(N/N=C/c1ccc([N+](=O)[O-])o1)c1cc([N+](=O)[O-])cc([N+](=O)[O-])c1O | inactive: 2.34
3 | CCS(=O)(=O)CCn1c([N+](=O)[O-])cnc1C | inactive: 1.08
4 | Cl.NCC(=O)CCC(=O)O [5-Aminolevulinic acid hydrochloride] | inactive: 1.75
5 | Br.CC(Cc1ccc(O)cc1)NCC(O)c1cc(O)cc(O)c1 (configuration not stated) [Fenoterol hydrobromide] | inactive: -0.959
6 | Br.CC(Cc1ccc(O)cc1)NCC(O)c1cc(O)cc(O)c1 (configuration not stated) | inactive: 0.432
7 | CN(C)C(=O)Oc1cccc([N+](C)(C)C)c1.COS(=O)(=O)[O-] [Hodostin] | inactive: 0.874
8 | Cc1ccc(/C(=C\CN2CCCC2)c2ccccn2)cc1.Cl | inactive: 2.49
9 | Cc1ccc(/C(=C\CN2CCCC2)c2ccccn2)cc1.Cl [Triprolidine hydrochloride] | inactive: 1.85
10 | CC(=O)Nc1ccc(OC(=O)c2ccccc2O)cc1 | inactive: 1.87
11 | O=C1Nc2ccccc2/C1=C1/Nc2ccccc2C1=O [Indirubin] | inactive: -0.089
12 | Cc1nc2n(c(=O)c1CCN1CCC(c3noc4cc(F)ccc34)CC1)CCCC2O (configuration not stated) [Paliperidone] | inactive: 4.42
13 | CN(c1ncccc1CNc1nc(Nc2ccc3c(c2)CC(=O)N3)ncc1C(F)(F)F)S(C)(=O)=O | -1.03 ± 4.5
14 | COc1ccc(-c2coc3cc(O)ccc3c2=O)c(OC)c1OC | inactive: 2.31
15 | Nc1nc(=O)n([C@@H]2CS[C@H](CO)O2)cc1F [Emtricitabine] | inactive: 1.84
16 | C[N+]1(C)C2CC(OC(=O)[C@@H](CO)c3ccccc3)CC1C1OC12.[Br-] (some centres not stated) | inactive: 0.0202
17 | C[C@H]1C(=O)O[C@@H]2CCN3CC=C(COC(=O)[C@](C)(O)[C@]1(C)O)[C@H]23 | inactive: 1.97
18 | CC1=CC(=O)[N-]S(=O)(=O)O1.[K+] | inactive: 2.67
19 | CC1(O)CCOC(=O)C1 (configuration not stated) | inactive: 0.999
20 | C[C@H](Cc1ccc(O)c(O)c1)[C@@H](C)Cc1ccc(O)c(O)c1 | active: -4.23
21 | C=CC[N+]1([C@H]2CC3C4CCC5C[C@H](O)[C@@H](N6CCOCC6)C[C@]5(C)C4CC[C@]3(C)[C@H]2OC(C)=O)CCCC1.[Br-] (some centres not stated) | inactive: 0.154
22 | CC1=C2C(O)C(=O)OC3CC4C(C)(C)C(=O)C=C[C@]4(C)C(CC1)[C@]23C (some centres not stated) | inactive: 2.12
23 | O=C1CCCC(=O)C1C(=O)c1ccc(C(F)(F)F)cc1[N+](=O)[O-] [Nitisinone] | inactive: 4.16
24 | CN(C)[C@@H]1C(O)=C(C(N)=O)C(=O)[C@@]2(O)C(O)=C3C(=O)c4c(O)ccc(Cl)c4[C@@H](O)[C@H]3C[C@@H]12.Cl [Demeclocycline hydrochloride] | inactive: 1.35

Row | SMILES | cell-cell fusion (z-score)
25 | c1ccc(Cc2nc3ccccc3[nH]2)cc1 [Bendazol] | inactive: 1.37
26 | O=C(O)c1cc2cc(Cl)ccc2[nH]1 | inactive: 2.75
27 | Cc1nc(/N=N/c2ccc(C(=O)[O-])cc2)c(COP(=O)([O-])[O-])c(C=O)c1O.[Na+].[Na+].[Na+] | inactive: 2.94
28 | O=C(/C=C/C=C/c1ccc2c(c1)OCO2)N1CCCCC1 | inactive: 2.62
29 | Cc1cc(C)nc(NS(=O)(=O)c2ccc(N)cc2)n1 | inactive: 1.89
30 | Cc1cccc(-c2[nH]c(C(C)(C)C)nc2-c2ccc3nccnc3c2)n1 | inactive: 2.24
31 | Cn1c(=O)c2[nH]c(-c3ccc(S(=O)(=O)O)cc3)nc2n(C)c1=O [8-(p-Sulfophenyl)theophylline] | inactive: 1.13
32 | CC(C)n1c(/C=C/[C@@H](O)C[C@@H](O)CC(=O)[O-])c(-c2ccc(F)cc2)c2ccccc21.[Na+] [Fluvastatin sodium salt] | inactive: -0.0474
33 | COc1ccccc1N1CCN(CC(O)COc2cccc3ccccc23)CC1 (configuration not stated) | inactive: -0.3
34 | CC1CC(OC(=O)c2ccccc2O)CC(C)(C)C1 (configuration not stated) | inactive: 3.69
35 | C=C1CCC2C(CC2(C)C)C(=O)CCC1O (configuration not stated) | inactive: 1.28
36 | COc1ccc2c(c1O)-c1cccc3c1[C@@H](C2)N(C)CC3.Cl [R(-)-Apocodeine hydrochloride] | inactive: 2.6
37 | C[C@H](CC(=O)C1OC1(C)C)[C@H]1C(=O)C[C@@]2(C)C3=CCC4C(C)(C)[C@@H](O[C@@H]5OC[C@@H](O)[C@H](O)[C@H]5O)CC[C@@]45C[C@@]35[C@@H](O)C[C@]12C (some centres not stated) | inactive: 0.852
38 | O=C([O-])C1=C(CSc2nnnn2CS(=O)(=O)[O-])CS[C@@H]2C(NC(=O)[C@H](O)c3ccccc3)C(=O)N12.[Na+].[Na+] (some centres not stated) | inactive: 2.92
39 | CCC(=O)N1CCN(c2ccc(-n3c(=O)ccc4cnc5ccc(-c6cnc7ccccc7c6)cc5c43)cc2C(F)(F)F)CC1 [Torin 1] | inactive: 1.59
40 | N[C@@H]1CONC1=O [D-Cycloserine] | inactive: 3.5
41 | CNC[C@H](O)c1ccc(O)c(O)c1.Cl [Epinephrine HCl] | inactive: -0.402
42 | CC/C=C\C/C=C\C/C=C\C/C=C\C/C=C\C/C=C\CCC(=O)O | inactive: 3.85
43 | CCOC(=O)N1CC\C(CC1)=C1\c2ccc(Cl)cc2CCc2cccnc12 [Loratadine] | inactive: 1.81
44 | C=C1C2CC[C@@]3(C)[C@H](c4ccoc4)OC(=O)C[C@]13O[C@H]1CCC(C)(C)[C@H](C(OC(C)=O)C(=O)OC)[C@@]21C (some centres not stated) | inactive: 2.67
45 | C/C1=C/CC(C)(C)/C=C/C/C(C)=C/CC1 [HUMULENE (alpha)] | inactive: 1.97
46 | O=c1cc(-c2cc(O)c(O)c(O)c2)oc2cc(O)cc(O)c12 | inactive: 1.73
47 | Cn1c(=O)n(-c2ccc(C(C)(C)C#N)cc2)c2c3cc(-c4cnc5ccccc5c4)ccc3ncc21 | inactive: 0.753

Looked up one by one from above, two records:
Row | SMILES | cell-cell fusion (z-score)
47 | Cn1c(=O)n(-c2ccc(C(C)(C)C#N)cc2)c2c3cc(-c4cnc5ccccc5c4)ccc3ncc21 | inactive: 0.753
22 | CC1=C2C(O)C(=O)OC3CC4C(C)(C)C(=O)C=C[C@]4(C)C(CC1)[C@]23C (some centres not stated) | inactive: 2.12
